No constants are given. Whether binding was seen depends on the method and setting. Binding seen in cells or lysates may run through a third protein. Some results given as binding are weak or reduced against the parent protein; the word gives no strength.
Columns and labels:
[1] = molecular target: mitogen-activated protein kinase-activated protein kinase 2 (human (endogenous in Jurkat)) (UniProt P49137); test: co-IP; Jurkat T cell lysates in IP buffer (25 mM HEPES pH 8.0, 150 mM KCl, 2.5 mM EDTA, 0.1% NP40); IP with HuR, hnRNPC or MK2 antibody overnight at 4°C, protein A/G agarose, Western blot; cells adhered to pLL or ICAM-1 for 0, 30 or 60 min; in some samples lysate treated with RNase A 30 min 37°C, or cells transfected with control, hnRNPH1 or hnRNPK siRNA
[2] = molecular target: heterogeneous nuclear ribonucleoprotein K (human (endogenous in primary human T cells)) (UniProt P61978); test: co-IP; primary human T cells adhered to pLL- or ICAM-1-coated plates for 30 min, lysed; hnRNPH1 or hnRNPK IP, HuR blot
[3] = molecular target: HuR (mouse) (mouse (endogenous in primary murine T cells)) (UniProt P70372); test: co-IP; WT or MK2-/- primary murine T cells adhered to pLL- or ICAM-1-coated plates for 45 min, lysed; HuR IP, hnRNPC blot

Protein sequences, listed by entry. Tags and fused reporters are not part of them. Lines headed by an entry give the natural chain unless they say otherwise; changes in a name come on top. Chains listed by the source or under a name are the forms on record and can include a tag or linker.
UniProt P49137: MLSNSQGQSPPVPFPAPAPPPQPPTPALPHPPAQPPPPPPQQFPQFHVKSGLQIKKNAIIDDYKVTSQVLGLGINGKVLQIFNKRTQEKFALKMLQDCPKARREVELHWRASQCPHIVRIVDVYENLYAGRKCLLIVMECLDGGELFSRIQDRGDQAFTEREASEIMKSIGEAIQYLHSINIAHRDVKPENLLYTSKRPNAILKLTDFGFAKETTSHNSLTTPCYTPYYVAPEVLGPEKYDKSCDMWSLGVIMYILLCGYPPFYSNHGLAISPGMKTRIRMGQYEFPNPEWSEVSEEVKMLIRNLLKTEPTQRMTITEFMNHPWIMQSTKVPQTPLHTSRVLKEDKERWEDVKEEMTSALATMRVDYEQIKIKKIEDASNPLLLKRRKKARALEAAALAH
UniProt P70372: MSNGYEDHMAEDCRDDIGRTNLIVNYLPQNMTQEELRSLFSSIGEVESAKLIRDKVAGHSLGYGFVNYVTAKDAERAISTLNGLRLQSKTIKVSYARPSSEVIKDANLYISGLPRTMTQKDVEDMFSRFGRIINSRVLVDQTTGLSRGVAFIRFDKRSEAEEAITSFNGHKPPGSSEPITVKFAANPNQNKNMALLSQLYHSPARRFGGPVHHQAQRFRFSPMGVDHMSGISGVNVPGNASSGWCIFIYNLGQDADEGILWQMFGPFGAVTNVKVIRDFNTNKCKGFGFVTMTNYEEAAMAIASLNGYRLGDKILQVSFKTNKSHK
heterogeneous nuclear ribonucleoproteins C1/C2 isoform b (P07910-2, form named): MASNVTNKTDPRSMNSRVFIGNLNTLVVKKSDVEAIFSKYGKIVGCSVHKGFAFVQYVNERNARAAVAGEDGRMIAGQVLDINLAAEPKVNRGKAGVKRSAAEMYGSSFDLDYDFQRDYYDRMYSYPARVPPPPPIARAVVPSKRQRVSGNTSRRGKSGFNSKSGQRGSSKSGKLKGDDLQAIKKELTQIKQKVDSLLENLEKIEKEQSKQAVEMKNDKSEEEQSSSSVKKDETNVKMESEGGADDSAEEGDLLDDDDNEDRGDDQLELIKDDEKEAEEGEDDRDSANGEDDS
UniProt Q9Z204: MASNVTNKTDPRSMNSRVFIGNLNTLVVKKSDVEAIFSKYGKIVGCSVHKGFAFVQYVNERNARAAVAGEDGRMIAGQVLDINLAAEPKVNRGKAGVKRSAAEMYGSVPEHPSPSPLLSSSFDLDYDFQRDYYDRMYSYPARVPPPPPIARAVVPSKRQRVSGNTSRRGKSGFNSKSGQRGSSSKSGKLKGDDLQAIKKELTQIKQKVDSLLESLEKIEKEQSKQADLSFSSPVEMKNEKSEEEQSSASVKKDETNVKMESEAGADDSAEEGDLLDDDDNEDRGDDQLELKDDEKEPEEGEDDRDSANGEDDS

binding [1]	binding [2]	binding [3]	Substance
binds	binds		Hu protein R (HuR RNA binding protein) (from UniProt Q15717 1-326)
binds			heterogeneous nuclear ribonucleoproteins C1/C2 isoform b (from UniProt P07910-2 1-293)
		binds	hnRNPC (mouse) (from UniProt Q9Z204 1-313)

From PMC6065199
